# At least one compound was matched to its structure with a doubt left.
# Sequences of proteins named here, by UniProt entry; tags and fusion partners are left off. Residues count along the entry.
# UniProt P19821, 272-832 F272M/F667Y: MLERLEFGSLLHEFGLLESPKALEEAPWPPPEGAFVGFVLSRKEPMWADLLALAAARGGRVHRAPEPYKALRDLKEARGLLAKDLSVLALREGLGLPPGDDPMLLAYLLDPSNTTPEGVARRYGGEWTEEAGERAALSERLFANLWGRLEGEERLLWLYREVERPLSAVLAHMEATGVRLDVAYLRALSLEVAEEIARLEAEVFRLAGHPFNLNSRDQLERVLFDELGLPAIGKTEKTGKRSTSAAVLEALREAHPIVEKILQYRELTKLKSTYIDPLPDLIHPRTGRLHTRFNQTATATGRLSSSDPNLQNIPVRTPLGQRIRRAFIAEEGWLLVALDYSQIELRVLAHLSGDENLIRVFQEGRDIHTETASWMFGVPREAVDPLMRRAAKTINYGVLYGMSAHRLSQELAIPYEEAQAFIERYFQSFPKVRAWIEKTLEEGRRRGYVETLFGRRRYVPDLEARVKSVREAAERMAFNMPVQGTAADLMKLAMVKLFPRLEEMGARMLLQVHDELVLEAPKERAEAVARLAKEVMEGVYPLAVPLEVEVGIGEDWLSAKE
# Biological target: T1, Taq Δ271 F667Y (polymerase A) (Thermus aquaticus, UniProt P19821, F272M/F667Y)
# T1 construct: made in house; host or cells: E. coli
# Test: DNA polymerase activity assay with detergent or additive, Taq Δ271 F667Y purified without detergent
# Assay type: biochemical
# Settings: additive final concentration 0.5% (w/v)
# Procedure: DNA polymerase activity was measured by running reactions of 50 μL containing 25 mM TAPS (tris-hydroxymethyl-methylaminopropane sulfonic acid) buffer, pH 9.3 (measured at 25° C.), 50 mM KCl, 2 mM MgCl2, 1 mM 2-mercaptoethanol, 0.2 mM each of dGTP, dCTP, dTTP, 0.2 mM [α-^33P]-dATP (0.05-0.1 Ci/mmol) and 0.4 mg/mL activated salmon sperm DNA. The reaction mixture (45 μL) was pre-heated to 74° C. and diluted polymerase (5 μL) added with thorough mixing. After 10 minutes of further incubation at 74° C., the reaction was stopped by the addition of 10 μL of 60 mM EDTA and the entire mixture placed at 0° C. Acid-precipitable radioactivity was determined on an aliquot ([…]) by diluting with 1 ml of 2 mM EDTA containing 0.05 mg/ml salmon sperm DNA and adding 1 mL of 20% (w/v) trichloroacetic acid, 2% (w/v) sodium pyrophosphate (Na4P2O7 10H2O) and incubating on ice for at least 15 minutes. Precipitated DNA was collected by filtering through 2.4 cm GFC filter disks (Schleichter and Schuell) and washed 7 times with 5ml of with 1 N HCl, 0.1 M sodium pyrophosphate. The filter was placed in 3 ml of aqueous scintillation counting fluid and ^33P-specific radioactivity determined by scintillation counting. […]
compound,measurement,value
"CCCCCCCC(=O)N(C)C[C@H](O)[C@@H](O)[C@H](O)[C@H](O)CO [Mega-8, Ocatanoyl-N-mehtylglucamide]",Taq Δ271 F667Y activity relative to 0.5% each NP-40 and Tween 20,−31 − %
